For this test, the target named is full-length human TLR4 expressed as fusion protein with GAL4 (pTLR4) (human). Description: mammalian two-hybrid assay and confocal co-localization in co-transfected HEK293 cells.

Protein sequences, listed by entry. Tags and fused reporters are not part of them. Lines headed by an entry give the natural chain unless they say otherwise; changes in a name come on top.
UniProt Q8IWL2: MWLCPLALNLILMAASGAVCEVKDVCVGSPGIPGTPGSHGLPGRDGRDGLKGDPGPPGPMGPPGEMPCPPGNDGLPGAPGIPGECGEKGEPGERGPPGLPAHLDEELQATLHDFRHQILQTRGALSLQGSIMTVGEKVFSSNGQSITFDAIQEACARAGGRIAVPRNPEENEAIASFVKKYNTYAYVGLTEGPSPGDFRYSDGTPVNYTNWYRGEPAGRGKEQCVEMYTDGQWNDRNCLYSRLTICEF

No constants are given. Whether binding was seen depends on the method and setting. Some results given as binding are weak or reduced against the parent protein; the word gives no strength.

For the substance “full-length human SPA expressed as fusion protein with VP16 (pSPA) (from UniProt Q8IWL2 21-248)”, the binding result is “binds”.

(Values after patent US20140256613A1.)
